Drawing on article PMC6504873, “High-throughput screening of the Plasmodium falciparum cGMP-dependent protein kinase identified a thiazole scaffold which kills erythrocytic and sexual stage parasites” (Scientific Reports, 2019), this text covers IFI for 1 compound.

A short description of the data set: Inhibition Frequency Index (IFI), promiscuity.

`Nc1nccc(-c2c(-c3ccc(F)cc3)ncn2C2CCNCC2)n1` [Compound 1]: the IFI was 50.0.
